Laboratory results taken from PubChem BioAssay AID2685 (National Center for Advancing Translational Sciences (NCATS), 2010).
The list shows a part of the results. These are further read-outs of the screen, such as a control signal, another cell line or another target. No call is given for them. Compounds called inactive in the main read-out are mostly missing here. Words in brackets tell the shape of the fitted curve; partial curves, single points and poor fits give uncertain potencies.

Experiment: qHTS Assay for Lipid Storage Modulators in Drosophila S3 Cells;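 as to cell number change: cells counted by Cell Tracker Red CMTPX staining in the red channel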
Conditions: BODIPY lipid droplet fluorescence, 18-24 h; for cell number change: measured here: cell count max response, cells fed with added oleic acid
In short: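 Laser-scanning cytometry quantifies lipid droplet accumulation (500–530 nm total intensity; droplet/cell object ratio) in oleic acid-fed (400 uM added) Drosophila S3 cells treated with a concentration series. 20 uM Triacsin C defined 100% inhibition.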

[1] = measured here: cell number channel AC50, cells fed with added oleic acid
[2] = measured here: lipid fluorescence (Fed channel) AC50, cells fed with added oleic acid

SMILES: Cc1ccc2[nH]c3c(c2c1)CN(C(=O)CN1CCN(C(=O)c2ccco2)CC1)CC3
- cell number change: -43.3%
- AC50 [1]: 29.1 µM [falling, single point]

SMILES: CCOc1ccccc1/C=C(/NC(=O)c1ccccc1)C(=O)NC(C)c1ccccc1 (configuration not stated)
- cell number change: -20.2%
- AC50 [1]: 0.731 µM [rising, single point]

SMILES: CCN1C(=O)CC(C(=O)Nc2ccc(F)cc2)SC1=Nc1ccc2c(c1)OCO2 (configuration not stated)
- AC50 [1]: 0.82 µM [rising, full curve]
- AC50 [2]: 1.84 µM [rising, full curve]

SMILES: Cn1c(SCC(=O)Nc2ccc3c(c2)oc2ccccc23)nnc1-c1ccccc1
- cell number change: -82.3%
- AC50 [1]: 32.6 µM [falling, single point]
- AC50 [2]: 32.6 µM [falling, single point]

SMILES: CN(C)c1nc2n(c(=O)n1)CCO2
- cell number change: 4.13%

SMILES: O=C(CSc1nc(=O)n(CCCN2CCOCC2)c2c1CCCC2)Nc1cccc(F)c1
- cell number change: -10%

SMILES: Cc1ccc(-c2nnn(CC(=O)N(c3cccc(O)c3)C(C(=O)NC(C)(C)C)c3cccs3)n2)o1 (configuration not stated)
- cell number change: -48.7%
- AC50 [1]: 29.1 µM [falling, single point]
- AC50 [2]: 20.6 µM [rising, single point]

SMILES: COc1cccc(/C=N/NC(=O)COc2cccc3cccnc23)c1O
- cell number change: -29.7%
- AC50 [1]: 2.31 µM [rising, partial curve]
- AC50 [2]: 1.46 µM [rising, partial curve, poor fit]

SMILES: O=C(NC(=S)Nc1ccc(CN2CCOCC2)cc1)c1cc2ccccc2o1
- cell number change: 16.8%
- AC50 [1]: 6.51 µM [rising, single point]
- AC50 [2]: 1.16 µM [rising, partial curve]

SMILES: CC(C)NC(=O)C(=O)NCCc1ccc(Cl)cc1
- cell number change: 47.5%
- AC50 [2]: 3.66 µM [falling, single point]

SMILES: CC(C)CN(C(=O)CN(C)C(=O)c1ccco1)c1c(N)n(CC(C)C)c(=O)[nH]c1=O
- cell number change: -39.5%
- AC50 [1]: 0.411 µM [falling, full curve]

SMILES: O=C(c1cccc(S(=O)(=O)Nc2ccc(F)cc2)c1)N1CCC1
- cell number change: -9.07%
- AC50 [2]: 18.4 µM [rising, partial curve, poor fit]

SMILES: CC(C)(C)OC(=O)NC(CNCc1ccccc1)Cc1ccccc1 (configuration not stated)
- cell number change: -21%
- AC50 [2]: 1.84 µM [falling, partial curve, poor fit]

SMILES: Cc1c(Cl)cccc1NC(=O)[C@@]1(CC(=O)O)CC(/C=C/c2ccccc2)=NO1
- cell number change: 12.4%

SMILES: COc1ccccc1-c1nc(NC(C)=O)n[nH]1
- cell number change: 3.73%
- AC50 [2]: 0.366 µM [rising, full curve, poor fit]

SMILES: CCOC(=O)Cc1csc(N/N=C\c2ccc(N(C)C)cc2)n1
- cell number change: -18.1%
- AC50 [1]: 4.61 µM [falling, single point]
- AC50 [2]: 20.6 µM [rising, partial curve]

SMILES: Cn1c(NCc2ccco2)nc2c1c(=O)n(Cc1ccc(Br)cc1)c(=O)n2C
- cell number change: -16.7%
- AC50 [2]: 29.1 µM [falling, single point]

SMILES: CC(C)C(=O)NC(c1ccccc1Cl)c1c(O)ccc2ccccc12 (configuration not stated)
- cell number change: -29.2%
- AC50 [2]: 29.1 µM [falling, single point]

SMILES: COc1cccc(-c2nc(-c3ccncc3)no2)c1
- cell number change: 14.4%
- AC50 [2]: 29.1 µM [rising, single point]

SMILES: O=C(OCC#CCSc1nnc(-c2cccc3ccccc23)o1)c1ccc(Cl)cc1
- AC50 [2]: 0.164 µM [rising, full curve, poor fit]

SMILES: COc1cc(NC2c3ncccc3C(=O)N2Cc2ccco2)cc(OC)c1 (configuration not stated)
- cell number change: -11.7%

SMILES: CCOC(=O)c1ccc(Nc2nc(C)cc(C)n2)cc1
- cell number change: 20.8%
- AC50 [2]: 2.06 µM [rising, full curve, poor fit]

SMILES: O=c1c2ccccc2nc2n1C(CSCc1cccc(C(F)(F)F)c1)CS2 (configuration not stated)
- cell number change: -39.5%
- AC50 [1]: 9.2 µM [falling, partial curve]
- AC50 [2]: 14.6 µM [falling, partial curve]

SMILES: Cc1cnc(C)c(N2CCN(Cc3nc(-c4ccc(C)o4)oc3C)CC2)n1
- cell number change: 15.6%
- AC50 [2]: 29.1 µM [rising, single point]

SMILES: COc1ccc(OC)c(NC(=O)C(CC(=O)O)Cc2ccc(Cl)cc2)c1 (configuration not stated)
- cell number change: 32.9%

SMILES: COc1ccc(Cl)cc1N(CC(=O)Nc1ccccc1C(=O)NCc1ccco1)S(C)(=O)=O
- cell number change: 1.52%

SMILES: CC(=O)Nc1cccc(OCc2cnc(Cl)s2)c1
- cell number change: 2.44%
- AC50 [2]: 0.116 µM [falling, full curve]

SMILES: Cc1noc(C)c1C(=O)OCC(=O)NC1CCCCC1C (configuration not stated)
- cell number change: -0.214%
- AC50 [2]: 0.291 µM [rising, full curve, poor fit]

SMILES: Nc1ccc(-n2nnnc2-c2ccco2)cc1
- cell number change: 30.4%
- AC50 [1]: 9.2 µM [rising, partial curve]
- AC50 [2]: 7.31 µM [rising, partial curve]

SMILES: c1ccc(-c2nnc(-c3c[nH]c4ccccc34)nc2-c2ccccc2)cc1
- cell number change: 1.78%

SMILES: O=C(CNc1ccccc1N1CCCC1=O)Nc1cc(C(F)(F)F)ccc1-n1cncn1
- AC50 [2]: 0.92 µM [falling, partial curve]

SMILES: Cc1ccc(NNC(=O)c2cc(C(C)(C)C)nn2Cc2ccccc2)cc1
- cell number change: -29.7%
- AC50 [2]: 29.1 µM [falling, single point]

SMILES: CCc1ccc(Nc2nnc(SCC(=O)c3ccc4c(c3)NC(=O)CO4)s2)cc1
- cell number change: -35.8%
- AC50 [1]: 0.13 µM [falling, full curve]
- AC50 [2]: 0.116 µM [falling, full curve]

SMILES: CCN1CCCC(CO)(Cc2ccccc2)C1 (configuration not stated)
- AC50 [1]: 3.66 µM [falling, single point]

SMILES: Cc1cc(=O)oc2cc(OCC(=O)N3CCCc4ccccc43)ccc12
- cell number change: 4.86%
- AC50 [2]: 5.17 µM [rising, single point]

SMILES: CCOc1cc(/C=N/Nc2ncnc(Cl)c2N)ccc1O
- cell number change: 12.3%
- AC50 [1]: 0.103 µM [rising, full curve, poor fit]
- AC50 [2]: 29.1 µM [rising, single point]

SMILES: O=C(C1CCN(CCCc2ccccc2)CC1)N1CCCCC1
- cell number change: 29%
- AC50 [2]: 0.092 µM [rising, full curve, poor fit]

SMILES: CC1CCCC(C)N1/N=C/c1ccccc1OC(F)F (configuration not stated)
- cell number change: -2.58%
- AC50 [1]: 0.259 µM [falling, partial curve, poor fit]
- AC50 [2]: 2.59 µM [falling, single point]

SMILES: CC1CN(S(=O)(=O)c2cccc(C(=O)Nc3ccc(S(=O)(=O)NC4=NCCCCC4)cc3)c2)CC(C)O1 (configuration not stated)
- cell number change: -35.6%
- AC50 [1]: 16.4 µM [falling, single point]
- AC50 [2]: 5.8 µM [falling, partial curve]

SMILES: C=CCn1c(C)nnc1SCC(=O)c1c(N)n(C2CC2)c(=O)[nH]c1=O
- cell number change: -28.1%

SMILES: COc1ccc(-c2cn[nH]c2-c2ccc(OCc3ccc(F)cc3)cc2O)cc1OC
- cell number change: -46.7%
- AC50 [1]: 29.1 µM [falling, single point]
- AC50 [2]: 20.6 µM [falling, single point]

SMILES: COc1ccccc1NC(=O)C(C)OC(=O)C(C)SCC(=O)Nc1ccc(C)cc1 (configuration not stated)
- cell number change: 4.59%
- AC50 [2]: 0.00461 µM [rising, full curve, poor fit]

SMILES: CCC(C)NC(=O)N[C@@H](CCSC)C(=O)OC (some centres not stated)
- cell number change: -19.5%
- AC50 [2]: 1.3 µM [falling, full curve, poor fit]

SMILES: Cn1c(SCC(=O)Nc2ccc3[nH]c(=O)[nH]c3c2)nnc1-c1ccccc1
- cell number change: 8.42%
- AC50 [2]: 13 µM [rising, partial curve, poor fit]

SMILES: c1ccc2nc(-c3nc4ccccc4o3)ccc2c1
- cell number change: -9.78%
- AC50 [2]: 0.00461 µM [falling, full curve, poor fit]

SMILES: CC(C)c1ccc(NC(=O)c2cc3c(=O)n(C)c4ccccc4c3n2C)cc1
- cell number change: -2.32%

SMILES: O=C(COc1ccccc1)Nc1c2c(nn1-c1ccc(F)cc1)CS(=O)(=O)C2
- cell number change: 10%
- AC50 [2]: 4.11 µM [rising, full curve, poor fit]

SMILES: O=C(Nc1cccc(C(F)(F)F)c1)c1sc(Cl)nc1C(F)(F)F
- AC50 [2]: 1.64 µM [falling, full curve]

SMILES: CCOc1ccccc1NC(=O)C1(S(=O)(=O)c2ccc(Cl)cc2)CC1
- cell number change: -21%

SMILES: O=C(Nc1nnc(C2=COCCO2)o1)c1ccc(F)cc1
- AC50 [2]: 3.26 µM [falling, partial curve]

SMILES: Cc1ccc(S(=O)(=O)Nc2nncs2)cc1
- cell number change: -38.7%
- AC50 [1]: 6.51 µM [falling, full curve, poor fit]
- AC50 [2]: 2.06 µM [falling, full curve]

SMILES: CC(C)C(NS(=O)(=O)c1ccc2c(c1)OCCO2)C(=O)NCCc1ccccn1 (configuration not stated)
- cell number change: -5.68%

SMILES: O=C(Nc1ccc2c(c1)OCO2)c1ccc(Cl)nc1
- cell number change: 50.4%
- AC50 [1]: 11.6 µM [rising, single point]
- AC50 [2]: 23.1 µM [rising, single point]

SMILES: Cc1c(C(=O)NCCSCc2cccc(C(F)(F)F)c2)cnn1-c1ccc(Cl)cc1
- cell number change: 7.79%
- AC50 [2]: 0.366 µM [falling, full curve]

SMILES: CC(C)c1ccc(N=c2c([N+](=O)[O-])nn(-c3ccc4c(c3)OCCO4)n2O)cc1
- cell number change: -63.8%
- AC50 [1]: 16.4 µM [falling, single point]

SMILES: COCCSc1ccccc1C(=O)N1CCCC(C)C1 (configuration not stated)
- cell number change: 33%
- AC50 [2]: 7.31 µM [falling, single point]

SMILES: CN(CC1CCCN(CCc2ccc(Cl)cc2)C1)C(=O)C(=O)c1ccco1 (configuration not stated)
- cell number change: 34.2%
- AC50 [1]: 18.4 µM [rising, single point]

SMILES: COc1ccc(N2CCN(C(=O)Cn3nnc(-c4ccc(OC)c(OC)c4)n3)CC2)cc1
- cell number change: -31.3%
- AC50 [1]: 29.1 µM [falling, single point]

SMILES: COc1cc(C(=O)Nc2cc(C(F)(F)F)ccc2Cl)cc(OC)c1OC
- cell number change: -33.7%
- AC50 [1]: 13 µM [falling, single point]
- AC50 [2]: 16.4 µM [falling, single point]
